# From PubChem BioAssay AID1487 (National Center for Advancing Translational Sciences (NCATS), 2009)
# Values joined by “and” are separate entries in the source; they are usually repeats but may differ in a detail not shown here. Identical values can stand only once. The list shows a part of the results. Shown are side measurements of this screen, not its main read-out; they come without a call. Compounds called inactive in the main read-out are mostly missing here. Words in brackets tell the shape of the fitted curve; partial curves, single points and poor fits give uncertain potencies.
# Experiment: qHTS Assay for Modulators of Lamin A Splicing
# Settings: HeLa LMNA splicing GFP/RFP minigene ratio, 48 h
# Method in brief: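 Read-out is the ratio of GFP to DsRed2 object intensity, acquired by 488 nm laser-scanning cytometry on HeLa lamin A-EGFP minigene reporter cells. Compound incubation 48 hrs at 37 °C in Opti-MEM with 2% FBS; DMSO 0.5% final.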
# [1] = measured here: GFP splicing reporter channel
# [2] = measured here: RFP viability control channel
smiles,measurement,setting,value
C/C(=N\NC(=O)c1ccc(O)cc1)c1ccc2c(c1)Nc1ccccc1S2,AC50,[1],"35.5 µM [falling, single point]"
same,AC50,[2],"25.1 µM [falling, single point]"
Cc1ccc(Cl)cc1OCC(=O)NCCOC(=O)Nc1sc(=S)n(C)c1C,AC50,[2],"20 µM [rising, single point]"
CC(C)OC(=O)c1c(NC(=O)CCC(=O)O)sc2c1CCCCC2,AC50,[2],"14.1 µM [rising, single point]"
c1ccc2[nH]c(SCc3ccc(-c4nnco4)cc3)nc2c1,AC50,[1],"8.91 µM [rising, partial curve]"
same,AC50,[2],"14.1 µM [rising, single point]"
Cc1nc2ccccc2n1CCN1CCOCC1,AC50,[2],"0.562 µM [falling, full curve]"
COc1ccc(N2CCN(CC(=O)Nc3ccc(SC(F)F)cc3)CC2)cc1,AC50,[2],"15.8 µM [rising, partial curve]"
COC(=O)c1sccc1S(=O)(=O)N(CC(=O)NCc1ccccc1)c1ccc(C)c(C)c1,AC50,[1],"0.0112 µM [falling, full curve, poor fit]"
same,AC50,[2],"0.00355 µM [falling, full curve, poor fit]"
Cc1ccc(-n2c3nc(=O)[nH]c(=O)c-3cc3cc([N+](=O)[O-])ccc32)cc1C,AC50,[1],"35.5 µM [falling, single point]"
same,AC50,[2],"0.178 µM [rising, full curve, poor fit]"
CSc1nsc(/C=C/Nc2ccc(C)c(C)c2)c1C#N,AC50,[1],"0.891 µM [falling, full curve, poor fit]"
CCn1cc(C(=O)O)c(=O)c2cc(S(=O)(=O)N(C)C)ccc21,AC50,[2],"5.62 µM [rising, single point]"
CCc1ccc(CNC(=O)C2CCCN(c3nn4cc(-c5ccc(F)cc5)nc4s3)C2)cc1 (centres undefined),AC50,[2],"35.5 µM [falling, single point]"
COc1ccc(C(=O)C2CCCN(S(=O)(=O)c3cccnc3)C2)c(C)c1 (centres undefined),AC50,[1],"0.00316 µM [rising, full curve, poor fit]"
same,AC50,[2],"0.00316 µM [rising, full curve, poor fit]"
O=C(COC(=O)CC(c1ccccc1)c1ccccc1)NCc1ccc(Cl)cc1,AC50,[1],"35.5 µM [rising, single point]"
same,AC50,[2],"35.5 µM [rising, single point]"
O/N=C/c1ccc(OCc2ccccc2)c(Br)c1,AC50,[1],"4.47 µM [falling, partial curve, poor fit]"
CC(=O)c1c(N2CCN(c3ccc(F)cc3)CC2)nc(=S)n(Cc2ccccc2)c1C,AC50,[1],"10 µM [rising, partial curve, poor fit]"
same,AC50,[2],"17.8 µM [rising, partial curve]"
CCOc1ccc(NC(=S)NCCN2CCN(Cc3ccccc3)CC2)cc1,AC50,[2],"35.5 µM [falling, single point]"
Cc1ccc(-c2nnc(OCCN3CCOCC3)c3ccccc23)cc1,AC50,[2],"8.91 µM [rising, partial curve, poor fit]"
COc1ccccc1/C=C/C=C1\Oc2c(ccc(O)c2CN2CCN(CCO)CC2)C1=O,AC50,[1],"35.5 µM [rising, single point]"
CC1CCN(C(=O)CSc2nc3c([nH]c4ccccc43)c(=O)n2-c2ccccc2)CC1,AC50,[1],"0.112 µM [rising, full curve, poor fit]"
same,AC50,[2],"1.78 µM [rising, partial curve, poor fit]"
CCOc1ccc(C2=Nn3cnnc3SC2)cc1,AC50,[1],"20 µM [rising, partial curve, poor fit]"
O=C(CN1CCN(c2ccc(Cl)cc2)CC1)Nc1ccc(Cl)c(C(F)(F)F)c1,AC50,[2],"35.5 µM [rising, single point]"
COCc1nnc(NC(=O)c2ccc(S(=O)(=O)N(CC(C)C)CC(C)C)cc2)o1,AC50,[2],"3.55 µM [rising, single point]"
C=C1C(=O)O[C@@H]2[C@@H]1CC/C(C)=C\CC[C@@]1(C)O[C@H]21,AC50,[1],"0.158 µM [falling, full curve]"
same,AC50,[2],"0.251 µM [falling, full curve]"
NC(=O)c1cnn(-c2ccc3ccccc3c2)c1N,AC50,[1],"1.41 µM [falling, full curve]"
same,AC50,[2],"2 µM [falling, full curve, poor fit]"
CC1(C)C(=O)Nc2ccccc2N1C(=O)CSc1nc(-c2ccccc2)cs1,AC50,[1],"11.2 µM [rising, single point]"
same,AC50,[2],"11.2 µM [rising, partial curve]"
COc1ccc(C(=O)CC(Nc2ccc([N+](=O)[O-])cc2)c2ccc(OC)cc2)cc1 (centres undefined),AC50,[2],"11.2 µM [rising, partial curve]"
Cc1nnc(SC(C)C(=O)Nc2nccs2)s1 (centres undefined),AC50,[2],"0.00355 µM [falling, full curve, poor fit]"
Cc1cccc(/C=C/C(=O)c2ccc(N3CCOCC3)cc2)c1,AC50,[1],"0.562 µM [rising, single point]"
Cc1ccc(S(=O)(=O)N(C)CCCC(=O)Nc2ccncc2)cc1,AC50,[2],"12.6 µM [rising, single point]"
COCCSc1ccccc1C(=O)Nc1ccccc1C(C)C,AC50,[1],"35.5 µM [rising, single point]"
same,AC50,[2],"35.5 µM [rising, single point]"
Cc1ccccc1C(=O)N1CCN(c2ccc(NC(=O)c3cccnc3Cl)cc2)CC1,AC50,[1],"11.2 µM [falling, partial curve, poor fit]"
same,AC50,[2],"15.8 µM [falling, partial curve, poor fit]"
O=C(/C=C\c1ccc2c(c1)OCO2)NC1CC(=O)N(c2ccc(F)cc2)C1 (centres undefined),AC50,[2],"14.1 µM [rising, single point]"
S=C(NCc1ccco1)Nc1ccccn1,AC50,[1],"1.12 µM [falling, single point]"
CCn1c(SCC(=O)N2CCCc3ccccc32)nc2ccccc2c1=O,AC50,[1],"17.8 µM [rising, single point]"
same,AC50,[2],"35.5 µM [rising, single point]"
CC(C)(C)c1ccc(C(=O)Nc2cc(-c3ccccc3)nn2-c2ccccc2)cc1,AC50,[1],"22.4 µM [rising, partial curve, poor fit]"
same,AC50,[2],"35.5 µM [rising, single point]"
CC1CCN(S(=O)(=O)c2cc(C(=O)NCCc3ccccc3)n(C)c2)CC1,AC50,[1],"4.47 µM [falling, partial curve, poor fit]"
CSc1nc(-c2ccccc2)nc(N2CCCC2)c1C(C)=O,AC50,[1],"8.91 µM [rising, partial curve, poor fit]"
CN(C)C(=O)CCCc1nc(-c2ccc(Cl)cc2)no1,AC50,[2],"17.8 µM [rising, single point]"
CCn1c2ccccc2c2nnc(NN)nc21,AC50,[1],"35.5 µM [falling, single point]"
Cc1oc(=O)c(NC(=O)c2ccccc2)cc1C(=O)c1ccccc1,AC50,[1],"35.5 µM [falling, single point]"
Cc1ccc(-c2cc(C(=O)NCCCn3ccnc3)no2)cc1,AC50,[1],"3.16 µM [falling, partial curve]"
same,AC50,[2],"7.94 µM [falling, partial curve, poor fit]"
N/C(=N\OC(=O)COc1ccc(Cl)cc1Cl)c1ccncc1,AC50,[2],"0.0794 µM [falling, full curve, poor fit]"
CC(C)C(NC(=O)c1ccc(C(C)(C)C)cc1)C(=O)OCC(=O)NC(=O)Cc1ccccc1 (centres undefined),AC50,[1],"35.5 µM [rising, single point]"
Cc1cc(C(=O)Cn2nc(C(=O)O)c3ccccc3c2=O)c(C)n1-c1ccccc1,AC50,[2],"12.6 µM [rising, single point]"
Nc1nc(Cl)nc2c1ncn2[C@H]1C[C@H](O)[C@@H](CO)O1,AC50,[1],"22.4 nM [falling, full curve, poor fit] and 70.8 nM [falling, full curve] and 7.94 nM [falling, full curve, poor fit]"
same,AC50,[2],"708 nM [rising, full curve] and 794 nM [rising, full curve]"
CC1CCCCC1n1c(=S)[nH]c2ccccc2c1=O (centres undefined),AC50,[2],"31.6 µM [rising, single point]"
Cc1cccc(N(CC(=O)NC(C)(C)C)C(=O)CNC(=O)c2cccs2)c1,AC50,[2],"1.26 µM [rising, full curve, poor fit]"
CC(NC(=O)C1CCN(C(=O)N2CCOc3ccc(Cl)cc32)CC1)c1ccccc1 (centres undefined),AC50,[2],"35.5 µM [rising, single point]"
Cn1c(N2CCCCC2)nc2c1c(=O)n(Cc1cccc(Br)c1)c(=O)n2C,AC50,[1],"8.91 µM [rising, partial curve]"
same,AC50,[2],"5.01 µM [rising, partial curve]"
Cc1ccc(-n2nc3ccc(NC(=O)/C=C/c4ccco4)cc3n2)cc1C,AC50,[2],"25.1 µM [falling, single point]"
CC(C)(C)C1CCc2c(sc(N)c2C(N)=O)C1 (centres undefined),AC50,[2],"35.5 µM [rising, single point]"
NNC(=O)/C(=C\c1ccc(Br)cc1)NC(=O)c1cccs1,AC50,[1],"2.82 µM [falling, single point]"
same,AC50,[2],"0.01 µM [falling, full curve, poor fit]"
Cc1[nH]c2ccccc2c1SCCNC(=O)c1ccc(Br)o1,AC50,[2],"31.6 µM [rising, single point]"
Cc1ccc(Cl)cc1N1CCN(CCCNC(=O)C2COc3ccccc3C2)CC1 (centres undefined),AC50,[2],"7.08 µM [falling, full curve, poor fit]"
CN(C(=S)Nc1cccnc1)c1ccc(O)cc1,AC50,[2],"35.5 µM [rising, single point]"
